The results are deposited in PubChem (AID1159506; NCATS, 2015).

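Luminescence from an EWS-FLI1 target-promoter (NR0B1) reporter, set against a CMV-promoter reporter, two days after silencing single genes in TC32 Ewing sarcoma cells. Each siRNA was applied at 20 nM. A z-score of the log NR0B1-over-CMV signal, less the median of siRNAs with the same seed; more negative means a stronger specific loss of the NR0B1 reporter.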

This is part of the screen; most of the strongest results are not listed here. Sequences are the guide (antisense) strand, without overhang.

With UAUGUCUGAUACGUAAUCC against CNGA1 the assay gave seed-corrected z-score -0.3077.
With AUUCGAUCCACAGCUGCCC against COQ7 the assay gave seed-corrected z-score 0.09072.
With UGAGCAUAAACAGCAGUCC against KDM4A the assay gave seed-corrected z-score 0.01762.
With UUUAGUUGAAGUAGUUUUC against PCDH17 the assay gave seed-corrected z-score 0.1337.
With UUAGUGAAGGGUGGUAUUU against LOC645166 the assay gave seed-corrected z-score 1.876.
With UUUCAUCCAGGUUCUGUAC against SYNPO2L the assay gave seed-corrected z-score 0.1249.
With UUGGGAAUUCAGCUCCUCG against SLC9A3R1 the assay gave seed-corrected z-score 0.2625.
With UUCUUGUCGUCUGUGCUUG against SPCS1 the assay gave seed-corrected z-score -1.006.
With UACUCGUAACUGGACGUGU against OLFM2 the assay gave seed-corrected z-score 0.2113.
With AUGAGCAUCAUGGAGAGGC against LHFPL3 the assay gave seed-corrected z-score 0.6794.
With AACCGGAUGAUGACUUCGG against RPS15AP17 the assay gave seed-corrected z-score 0.7556.
With AUUGUGGUUGGUGAAGUCG against PPIF the assay gave seed-corrected z-score -0.03802.
With UUUGGUCUGACGACUUCGC against LINC00493 the assay gave seed-corrected z-score -0.5772.
With AUAGUCUUAAUCUCUCAGG against GPSM3 the assay gave seed-corrected z-score 0.5936.
With UGAUGGGACCUGAAGUGCC against LCE3C the assay gave seed-corrected z-score 0.09089.
With UAGACUGAUAUCGAGGAGC against C6orf62 the assay gave seed-corrected z-score 0.5377.
With UCUGUUCUGAAAGCAUUUC against ZNF641 the assay gave seed-corrected z-score 0.483.
With UCCUCCAACUGAGACAUGG against MAN1C1 the assay gave seed-corrected z-score 0.8009.
With UUUGAUACAGAGAAUCUUC against OR11A1 the assay gave seed-corrected z-score 0.6891.
With UAAGUUAUCUAACCGGCUC against NCBP3 the assay gave seed-corrected z-score 0.3956.
With UAUAAUCCAACCGAUAUUC against ITGAV the assay gave seed-corrected z-score 0.4512.
With UCUACUCUUUGUUCGAAGG against MAP1LC3B the assay gave seed-corrected z-score -0.2285.
With AUCGUGGAUGUAGUUAGGC against HID1 the assay gave seed-corrected z-score -0.3426.
With UGGAGUACGAAGAAUUCCC against CLTC the assay gave seed-corrected z-score -0.3923.
With UUAAGUUCCUGGUAUUCCG against TSHR the assay gave seed-corrected z-score -0.7088.
With AACUUGACAAACGCGGUGC against ASAP1 the assay gave seed-corrected z-score -0.3717.
With UUAAUUACCAGUAGUGAAG against PRMT6 the assay gave seed-corrected z-score -0.4101.
With UCCGUGACAUACGUGAACC against CCDC63 the assay gave seed-corrected z-score -0.2387.
With UAGACUUUUCAGGUAAUGC against LOC653653 the assay gave seed-corrected z-score -0.309.
With UCCCGGAUCAGCAUGAGCA against TBC1D13 the assay gave seed-corrected z-score 0.4771.
With UCAGAGGACAUCUCUCAGU against URAD the assay gave seed-corrected z-score 0.3482.
With UUUGCAACAAUUGGAAUAC against ARMC10 the assay gave seed-corrected z-score -0.2884.
With UUAACGAAAAAGAUGUCAG against NWD2 the assay gave seed-corrected z-score 0.9317.
With UCUUGAUGCAGCAAGAUGU against GFOD2 the assay gave seed-corrected z-score 0.03017.
With UGCUGACACACGUACUGGC against C19orf70 the assay gave seed-corrected z-score -0.6475.
With UAACGGUCCAACGAGAUGA against GPR135 the assay gave seed-corrected z-score 0.1217.
With AGAGCACUGAGAGACUUCC against WDR62 the assay gave seed-corrected z-score -0.3144.
With UAACUUAUAUUCGUUCUGC against MLH3 the assay gave seed-corrected z-score 0.6056.
With UAAUGGACAUGUAGGAGUC against DNM3 the assay gave seed-corrected z-score -0.6131.
With AACUCUAUCAGGGUACUUG against ABHD4 the assay gave seed-corrected z-score -0.5058.
With UCUUCGUGCACUUUCUUCA against NEFL the assay gave seed-corrected z-score 1.126.
With UUGUCAUAGAGCUUGGCGC against SYCN the assay gave seed-corrected z-score -0.4998.
With AUAUGCAGAAUAACCUUUG against CTSO the assay gave seed-corrected z-score -1.993.
With UUGCCGUUCAUUAUUGCGC against GALNT14 the assay gave seed-corrected z-score -0.2692.
With UUUGUUCCACGACCCAUAG against HSP90AA1 the assay gave seed-corrected z-score 2.527.
With AUAACUCCAAUUGCGGUUG against KIF5B the assay gave seed-corrected z-score -0.01937.
With AUAGCUACCAAAAAUCAGG against KCNE5 the assay gave seed-corrected z-score -0.04974.
With UGUCAUUCCUGACAGAUUC against RARB the assay gave seed-corrected z-score 0.2566.
With UAGUUGAUUCGUAAUGAGG against CCDC73 the assay gave seed-corrected z-score -1.415.
With UGGGAUAAUUGAUCAUUGC against TSC22D2 the assay gave seed-corrected z-score 1.559.

The last 6 entries again:

{"strand": "UUUGUUCCACGACCCAUAG", "target gene": "HSP90AA1", "seed-corrected z-score": "2.527"}
{"strand": "AUAACUCCAAUUGCGGUUG", "target gene": "KIF5B", "seed-corrected z-score": "-0.01937"}
{"strand": "AUAGCUACCAAAAAUCAGG", "target gene": "KCNE5", "seed-corrected z-score": "-0.04974"}
{"strand": "UGUCAUUCCUGACAGAUUC", "target gene": "RARB", "seed-corrected z-score": "0.2566"}
{"strand": "UAGUUGAUUCGUAAUGAGG", "target gene": "CCDC73", "seed-corrected z-score": "-1.415"}
{"strand": "UGGGAUAAUUGAUCAUUGC", "target gene": "TSC22D2", "seed-corrected z-score": "1.559"}